Experimental data: PubChem BioAssay AID1671195 (Yale University, 2021)
Aim: 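Regulators of LDL receptor activity judged by labelled LDL uptake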 (primary screen). Cells: human Huh7 hepatoma cells. Knock-down reagent: siRNA pool against human genes, 18 nM. Time to read-out: about 2 to 2.5 days of knockdown, then 8 h LDL uptake. Challenge: DiI-labelled LDL at 30 µg/ml for 8 h, in lipoprotein-deficient serum medium. Measurement: 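Per-cell DiI-LDL intensity by automated imaging; well means scaled to the plate median and given as a robust z-score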. Reading the numbers: robust z-score: higher = more LDL uptake after knockdown. Call rule: 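a gene counts as active if at least two replicate z-scores exceed ±2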.
In all, the deposit lists about 22,000 reagents; below is an unselected part. About 1,510 of all reagents (6.9%) count as active. 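Active includes knockdowns raising or lowering LDL uptake; positive z-scores mean more uptake, negative mean less.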 A number with no mark means an inactive call.

no.	Gene	robust z-score, replicate 1	robust z-score, replicate 2	robust z-score, replicate 3
1	GMDS (GDP-mannose 4,6-dehydratase)	1.41	1.36	1.33
2	GAS6 (growth arrest specific 6)	0.657	3.42	1.19
3	POGLUT1 (protein O-glucosyltransferase 1)	0.895	2.19	0.735
4	TEX101 (testis expressed 101)	1.16	0.955	0.968
5	C5orf58 (chromosome 5 open reading frame 58)	-0.799	-1.71	-0.629
6	SLC35G1	1.49	1.1	1.34
7	TSPEAR-AS2 (TSPEAR antisense RNA 2)	-0.627	0.0313	-0.211
8	CPHL1P (ceruloplasmin and hephaestin like 1, pseudogene)	-1.4	-1.08	-1.28
9	GPX4 (glutathione peroxidase 4)	-2.86 (active)	-2.46	-2.03
10	SLC25A20	1.46	-0.388	-2.78
11	COX17 (cytochrome c oxidase copper chaperone COX17)	-0.758	-1.2	-0.297
12	LARP4 (La ribonucleoprotein 4)	0.471	0.461	0.276
13	TBC1D14 (TBC1 domain family member 14)	0.0454	0.682	1.44
14	SPRED2 (sprouty related EVH1 domain containing 2)	-0.895	-1.16	-0.629
15	CNTN5 (contactin 5)	1.7	0.384	0.479
16	LOC440250 (retired record)	1.25	0.925	0.813
17	LINC00863 (long independently transcribed non-coding RNA 863)	-0.488	-0.122	-0.239
18	DEFB132 (defensin beta 132)	-0.00155	-0.0789	-0.273
19	SV2A (synaptic vesicle glycoprotein 2A)	-0.693	-0.995	-0.964
20	TOR4A (torsin family 4 member A)	0.0373	0.0941	-1.31
21	MS4A4A (membrane spanning 4-domains A4A)	0.691	-0.72	0.124
22	FGF3 (fibroblast growth factor 3)	-0.982	0.179	-0.313
23	ATP6V1G1 (ATPase H+ transporting V1 subunit G1)	-0.293	-0.321	-0.594
24	FBXO7 (F-box protein 7)	1.41	-0.789	1.71
25	LBP (lipopolysaccharide binding protein)	0.816	-0.824	0.316
26	UNC5CL (unc-5 family C-terminal like)	0.219	0.212	0.313
27	ELF5 (E74 like ETS transcription factor 5)	-0.391	2.33	0.775
28	NLRP5 (NLR family pyrin domain containing 5)	-1.3	-1.83	-1.93
29	BTNL2 (butyrophilin like 2)	0.531	-1.01	-0.251
30	TMEM177 (transmembrane protein 177)	-1.22	-0.893	-0.859
31	SLC36A2	0.00122	1.4	-0.0316
32	TMEM134 (transmembrane protein 134)	0.322	0.193	0.37
33	SPDEF (SAM pointed domain containing ETS transcription factor)	-0.463	-0.568	-0.272
34	TBC1D1 (TBC1 domain family member 1)	-0.244	-0.458	-0.216
35	ABCA8 (ATP binding cassette subfamily A member 8)	-0.199	-0.359	0.0494
36	EXOSC6 (exosome component 6)	2.94 (active)	4.52	2.96
37	DUSP9 (dual specificity phosphatase 9)	-0.616	-0.494	-1.16
38	PLIN4 (perilipin 4)	0.718	-0.328	-0.0569
39	TNFRSF4 (TNF receptor superfamily member 4)	0.0557	0.0282	-0.0505
40	OR4D6 (olfactory receptor family 4 subfamily D member 6)	-0.347	-0.556	-0.551
41	LOC343384 (retired record)	3.07	1.48	1.86
42	ADGRF4 (adhesion G protein-coupled receptor F4)	-0.985	-0.433	-1.28
43	SLC7A4	3.4 (active)	3.25	3.92
44	MAEL (maelstrom spermatogenic transposon silencer)	1.53	0.706	1.26
45	VCAN (versican)	-0.23	-0.342	0.133
46	CDK2AP1 (cyclin dependent kinase 2 associated protein 1)	0.509	-1.46	0.112
47	DDAH2 (DDAH family member 2, ADMA-independent)	-0.76	-1.15	-0.938
48	PIK3CG	-0.54	-0.553	-1.44
49	LINC02913 (long independently transcribed non-coding RNA 2913)	2.7 (active)	4.42	4.48
50	HS3ST3B1 (heparan sulfate-glucosamine 3-sulfotransferase 3B1)	0.515	1.39	0.541
51	AGO3 (argonaute RISC catalytic component 3)	-0.946	-1.18	-1.56
52	PRICKLE2 (prickle planar cell polarity protein 2)	2.68 (active)	2.33	3.12
53	LOC441044 (retired record)	0.164	-0.148	0.00661
54	PHYHIPL (phytanoyl-CoA 2-hydroxylase interacting protein like)	-0.933	-0.515	-0.0626
55	COPS3 (COP9 signalosome subunit 3)	1.73 (active)	2.23	2.31
56	LOC440562 (retired record)	0.373	0.0735	0.13
57	BRAT1 (BRCA1 associated ATM activator 1)	-1.01	-0.37	-0.18
58	RPL12 (ribosomal protein L12)	-1.75	-1.74	-1.18
59	NUP62 (nucleoporin 62)	-2.03 (active)	-1.97	-1.88
60	LOC388751 (retired record)	0.183	-0.188	0.567
61	NPR2 (natriuretic peptide receptor 2)	-0.955	0.337	-0.546
62	WDR75 (WD repeat domain 75)	-1.55	-1.74	-1.68
63	ESD (esterase D)	-0.751	-1.1	-0.536
64	MRPL23 (mitochondrial ribosomal protein L23)	2.45 (active)	1.58	2.69
65	MSRB3 (methionine sulfoxide reductase B3)	-0.328	-0.506	-0.541
66	FNDC7 (fibronectin type III domain containing 7)	-0.407	-0.514	-0.447
67	ARHGEF9 (Cdc42 guanine nucleotide exchange factor 9)	-0.624	-0.885	-0.761
68	SUPV3L1 (Suv3 like RNA helicase)	0.817	1.15	0.959

8 successive records from above, for reference:
no.	Gene	robust z-score, replicate 1	robust z-score, replicate 2	robust z-score, replicate 3
6	SLC35G1	1.49	1.1	1.34
7	TSPEAR-AS2 (TSPEAR antisense RNA 2)	-0.627	0.0313	-0.211
8	CPHL1P (ceruloplasmin and hephaestin like 1, pseudogene)	-1.4	-1.08	-1.28
9	GPX4 (glutathione peroxidase 4)	-2.86 (active)	-2.46	-2.03
10	SLC25A20	1.46	-0.388	-2.78
11	COX17 (cytochrome c oxidase copper chaperone COX17)	-0.758	-1.2	-0.297
12	LARP4 (La ribonucleoprotein 4)	0.471	0.461	0.276
13	TBC1D14 (TBC1 domain family member 14)	0.0454	0.682	1.44
